Measurements as given in PubChem BioAssay AID504444 (National Center for Advancing Translational Sciences (NCATS), 2011).
Out of some 360,000 compounds screened, about 7,500 (2.1%) were called active. The inconclusive results got no clear call from the source; some entries with a clear call stand among them for comparison. Calls follow the shape of the dose curve; as a rule, active = well fitted inhibition curve with a large enough effect; inconclusive = small, poorly fitted or top-dose-only effect, or effect the other way; inactive = flat fitted curve, though single readings scatter. Potencies of inconclusive entries are doubtful fits and often do not repeat.

Assay: Nrf2 qHTS screen for inhibitors; also: nearly all actives have a fitted effect of over 60% in size
Settings: A549 ARE-Fluc reporter, luciferase luminescence, 18-24 h; series mostly up to 46 µM
Method in brief: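 A549 ARE_Fluc cells (5000/well, 5% FBS OPTI-MEM) pre-incubated 2 h, then treated with compounds 18-24 h at 37C/5% CO2 in concentration-response. CellTiter-Fluor viability read first; BugLite luciferase luminescence after 15 min at room temperature gives Nrf2 activity.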
Potency is read from the fitted curve at half-maximal effect.

Row | Structure (SMILES) | Potency
1 | CC(C)(C)OC(=O)NCCCCCNC(=O)c1[nH]cnc1C(=O)NC1CCN(C(=O)OC(C)(C)C)CC1 | active: 20.6 µM
2 | CC(C)NC(=O)Nc1cccc2c1O[C@H](CN(C)S(=O)(=O)c1cccs1)[C@@H](C)CN([C@H](C)CO)C2=O | inactive
3 | COc1ccc(/C=C(\C#N)C(=O)NCC(c2ccc(F)cc2)N2CCOCC2)cc1 (stereo unspecified) | inactive
4 | CC(=O)Cc1nsc(Nc2cccc(C)c2)n1 | inconclusive: 9.2 µM [activator, partial curve, poor fit]
5 | CCC1CN(C(=O)N2CCC(C(=O)N3CCN(c4cc(C)ccc4C)CC3)CC2)c2ccccc2O1 (stereo unspecified) | inconclusive: 4.61 µM [falling, full curve, poor fit]
6 | O=C(NNS(=O)(=O)c1ccccc1)c1sccc1-n1cccc1 | inconclusive: 20.6 µM [activator, single point]
7 | COc1ccc(-n2c(SCc3cn4c(C)cccc4n3)nc3ccccc3c2=O)cc1OC | inconclusive: 29.1 µM [falling, single point]
8 | COc1ccc(OC)c(S(=O)(=O)NCCOC23CC4CC(CC(C4)C2)C3)c1 | inconclusive: 20.6 µM [falling, partial curve]
9 | CSc1ccc(C2C(C(=O)c3ccco3)=C(O)C(=O)N2c2nnc(SC)s2)cc1 (stereo unspecified) | inconclusive: 1.84 µM [activator, full curve, poor fit]
10 | COC(=O)COc1ccc(Oc2nc(NC(C)(C)C)nc(N(C)C)n2)nn1 | inactive
11 | Cc1ccc(Sc2ccc(NC(=O)c3ccc(S(C)(=O)=O)cc3Cl)cc2)cc1 | inconclusive: 13 µM [falling, partial curve, poor fit]
12 | Nc1cnnc(N/N=C\c2ccccc2)c1Cl | inconclusive: 9.2 µM [activator, partial curve]
13 | COC(=O)c1sccc1NC(=O)Nc1ccc(Cl)c(Cl)c1 | inconclusive: 2.59 µM [activator, full curve, poor fit]
14 | COc1ccc(/C=N/NC(=O)c2c(-c3ccccc3)noc2C)cc1[N+](=O)[O-] | inconclusive: 20.6 µM [falling, single point]
15 | N/C(COc1ncn(-c2ccccc2)n1)=N\S(=O)(=O)c1ccc(Cl)cc1Cl | inactive
16 | CCOC(=O)C1(Cc2cccc(OC)c2)CCCN(C(=O)CNC(C)=O)C1 (stereo unspecified) | inconclusive: 8.2 µM [activator, partial curve]
17 | Cc1nn(-c2ccc(F)cc2)c(Cl)c1C(=O)N(C)CC(=O)Nc1cccc(F)c1 | inconclusive: 18.4 µM [falling, single point]
18 | CC(=O)OC[C@H]1O[C@@H](Oc2cc(O)cc3oc(-c4ccc(O)cc4)cc(=O)c23)[C@H](O[C@@H]2O[C@@H](C)[C@H](O)[C@@H](O)[C@H]2O)[C@@H](O)[C@@H]1O | inactive
19 | CC(Oc1ccccc1)C(=O)NNC(=O)c1ccccn1 (stereo unspecified) | inconclusive: 29.1 µM [falling, single point]
20 | CCOc1ccc(Cl)cc1/C=C1/C(=O)ON=C1C | inconclusive: 18.4 µM [activator, single point]
21 | Cc1ccc(-c2nnc(Nc3ccccc3)o2)cc1 | inconclusive: 2.06 µM [falling, single point]

3 of these compounds, set out differently.

| Row | Structure (SMILES) | Potency |
| --- | --- | --- |
| 17 | Cc1nn(-c2ccc(F)cc2)c(Cl)c1C(=O)N(C)CC(=O)Nc1cccc(F)c1 | inconclusive: 18.4 µM [falling, single point] |
| 18 | CC(=O)OC[C@H]1O[C@@H](Oc2cc(O)cc3oc(-c4ccc(O)cc4)cc(=O)c23)[C@H](O[C@@H]2O[C@@H](C)[C@H](O)[C@@H](O)[C@H]2O)[C@@H](O)[C@@H]1O | inactive |
| 19 | CC(Oc1ccccc1)C(=O)NNC(=O)c1ccccn1 (stereo unspecified) | inconclusive: 29.1 µM [falling, single point] |

Later entries.

Row | Structure (SMILES) | Potency
22 | CCOC(=O)Cn1nc(C(F)F)c(Br)c1C | inconclusive: 0.58 µM [falling, full curve, poor fit]
23 | O=C(Cc1ccc(Br)c2ccccc12)N/N=C/c1ccccn1 | inconclusive: 23.1 µM [falling, single point]
24 | O=C(c1ccco1)N1CCN(C(=O)c2cnn(-c3cccc(F)c3)c2C2CCNCC2)CC1 | inconclusive: 25.9 µM [activator, partial curve, poor fit]
25 | O=C(/C=C/c1ccc(O)cc1)c1ccccc1 | inconclusive: 29.1 µM [activator, single point]
26 | O=C(Nc1ccccc1)Nc1ccc(Cl)nc1Cl | inconclusive: 18.4 µM [falling, single point]
27 | CC1(C)NC(=O)N(CCCOc2ccccc2Br)C1=O | inconclusive: 18.4 µM [activator, single point]
28 | O=C(NC1CCCCC1)c1cc(-c2ccccc2O)on1 | inactive
29 | COc1ccccc1OCc1nc(-c2cccc(C)c2)no1 | inconclusive: 20.6 µM [activator, partial curve]
30 | O=C(Nc1ccc2c(c1)OCO2)N1CCN(c2cccc(C(F)(F)F)c2)CC1 | active: 23.1 µM
31 | CN(C)S(=O)(=O)c1ccc2oc(SCC(=O)Nc3ccccc3F)nc2c1 | inconclusive: 3.26 µM [activator, single point]
32 | COc1cc(Cl)ccc1OCc1cc(C(=O)N2CCCC(OC)C2)no1 (stereo unspecified) | inconclusive: 4.11 µM [activator, partial curve]
33 | CCC1Oc2ccc(C)cc2N(CC(=O)N(Cc2ccc(C)o2)C2CCCC2)C1=O (stereo unspecified) | inconclusive: 16.4 µM [falling, single point]
34 | COc1cc2c(cc1OC)CN(c1nc(CN3CCOCC3)nc3sc4c(c13)CCC(C)C4)CC2 (stereo unspecified) | inconclusive: 9.2 µM [falling, partial curve, poor fit]
35 | Cc1oc2ccc(O)cc2c1C(=O)c1ccc([N+](=O)[O-])cc1 | inconclusive: 3.66 µM [activator, full curve]
36 | COC(=O)CCC(=O)Nc1ccc(Cl)c(Cl)c1 | inactive
37 | O=C(O)CCCc1nc(-c2ccc(Cl)cc2)no1 | inconclusive: 29.1 µM [falling, single point]
38 | COc1ccc(OC)c(NC(=O)c2c(C)oc3ncnc(N4CCOCC4)c23)c1 | inconclusive: 29.1 µM [activator, single point]
39 | O=C(CN1C(=O)c2ccccc2C1=O)N1CCN(C2c3ccccc3-c3ccccc32)CC1 | inactive
40 | O=C(CC1C(=O)NCCN1C/C=C/c1ccccc1)NCCCC1CCCC1 (stereo unspecified) | inconclusive: 29.1 µM [activator, single point]
41 | COc1ccc(C)cc1Nc1n[n+](-c2ccccc2)c(-c2ccc(OC)c(OC)c2OC)s1 | inconclusive: 16.4 µM [falling, single point]
